PubChem BioAssay AID743255 (National Center for Advancing Translational Sciences (NCATS), 2014)
Out of some 390,000 compounds screened, about 910 (0.23%) were called active. Inconclusive means that the source gave no clear call. Such entries were picked first, then a sample of the others. Calls follow the shape of the dose curve; as a rule, active = well fitted inhibition curve with a large enough effect; inconclusive = small, poorly fitted or top-dose-only effect; inactive = no such curve, though single readings can be large or run the other way. A potency beside an inconclusive call is a rough fit, not a confirmed value.

Amino acid sequences for entries named in this document (tags omitted). A change or cut given only in a name is not applied to a line headed by its entry.
UniProt O94782: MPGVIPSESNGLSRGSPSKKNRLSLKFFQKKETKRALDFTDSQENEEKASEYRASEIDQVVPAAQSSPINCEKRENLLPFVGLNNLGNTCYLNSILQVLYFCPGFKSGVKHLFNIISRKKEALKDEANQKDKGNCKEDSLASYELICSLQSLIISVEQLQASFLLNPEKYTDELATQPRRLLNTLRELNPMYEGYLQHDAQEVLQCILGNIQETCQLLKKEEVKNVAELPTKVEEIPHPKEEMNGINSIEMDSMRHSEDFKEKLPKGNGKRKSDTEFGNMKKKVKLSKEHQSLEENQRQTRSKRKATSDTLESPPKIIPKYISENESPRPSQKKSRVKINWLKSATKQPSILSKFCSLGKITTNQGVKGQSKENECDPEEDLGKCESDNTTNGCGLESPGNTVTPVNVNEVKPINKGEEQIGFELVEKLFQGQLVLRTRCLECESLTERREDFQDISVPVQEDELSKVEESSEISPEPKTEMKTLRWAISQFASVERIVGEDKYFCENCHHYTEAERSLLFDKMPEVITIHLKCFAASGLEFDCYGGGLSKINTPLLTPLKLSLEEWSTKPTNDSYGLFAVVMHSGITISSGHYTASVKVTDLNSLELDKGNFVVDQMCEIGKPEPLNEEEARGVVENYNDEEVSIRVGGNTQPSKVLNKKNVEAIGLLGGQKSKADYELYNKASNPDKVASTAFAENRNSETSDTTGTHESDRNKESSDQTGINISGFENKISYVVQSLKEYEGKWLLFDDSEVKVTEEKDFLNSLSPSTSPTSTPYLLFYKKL

Molecular target: Ubiquitin carboxyl-terminal hydrolase 1 (Homo sapiens) (UniProt O94782)
Assay: Inhibitors of USP1/UAF1: Primary Screen; also: nearly all actives have a fitted effect of over 60% in size
Conditions: recombinant USP1/UAF1, Ub-Rhodamine cleavage fluorescence; activity change, negative = inhibition: at 57.1 µM (top of the series)
How it was run: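 USP1/UAF1 complex at 1 nM was preincubated with compound for 15 min at room temperature, then Ub-Rho substrate (150nM final) was added. Fluorescence (480/540 nm) was read kinetically, 6 reads every 60 seconds.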
% is scaled to controls: 0 for no effect and ±100 for the full control effect; potency is read from the fitted curve at half-maximal effect.

Potency, inconclusive:
COCCn1c(SCC(=O)NCc2ccc(F)cc2)nc2ccccc21 5.62 µM [inhibitor, single point]
COc1cccc(C2=CC(=O)C[C@H](c3ccc(Cl)cc3)C2)c1OC 0.282 µM [inhibitor, full curve]
CC(C)(C)c1ccc(C(=O)Nc2ccccc2NC(=O)c2ccco2)cc1 44.7 µM [inhibitor, partial curve, poor fit]
Cc1ccc(NC(=O)c2nc[nH]c2C(=O)N2CCN(C(=O)OC(C)(C)C)CC2)cc1 50.1 µM [inhibitor, partial curve, poor fit]
CC(C)N(C(=O)[C@H]1C[C@H](CC(=O)NCC23CC4CC(CC(C4)C2)C3)C(=O)N2CCc3c([nH]c4ccc(Cl)cc34)[C@]12C)C(C)C 0.282 µM [inhibitor, full curve, poor fit]
CC1=C(C(=O)Nc2ccccc2)C(c2ccco2)C(C#N)=C(SCC(=O)Nc2cccc(C)c2C)N1 (configuration not stated) 0.251 µM [inhibitor, full curve, poor fit]
CC(=O)N(C1=C(N)C(=O)c2ccccc2C1=O)C(C)C 44.7 µM [inhibitor, partial curve, poor fit]
Cc1ccc(NC(=O)CC2Nc3cc(C)c(C)cc3NC2=O)c(C)c1 (configuration not stated) 0.398 µM [inhibitor, full curve, poor fit]
CCOc1ccccc1NC(=O)C1=C(C)Nc2ncnn2C1c1ccc(NC(C)=O)cc1 (configuration not stated) 7.08 µM [inhibitor, single point]
Cc1ccc(Cc2nc3ccccc3nc2SCC(=O)N2CCN(c3ccccc3)CC2)cc1 35.5 µM [inhibitor, partial curve, poor fit]
COc1ccc(-c2ccc3c(c2)S(=O)(=O)c2cccc(C(=O)N4CCN(c5c(Cl)cncc5Cl)CC4)c2C3=O)cc1OC 31.6 µM [inhibitor, partial curve]
COc1ccc(-n2nc(C(=O)N(C)c3cc(Cl)ccc3OC)c3c4ccccc4n(C)c3c2=O)cc1 8.91 µM [inhibitor, partial curve]
OCCNC(=S)Nc1ccc2c(c1)OCCO2 7.94 µM [inhibitor, partial curve, poor fit]
COc1ccc(Cn2c(CO)cnc2SCc2ccc(F)cc2)cc1 6.31 µM [inhibitor, single point]
CCn1ccc2c(OCC(=O)NCc3ccccc3)cccc2c1=O 7.94 µM [inhibitor, partial curve]
Cc1[nH]nc(N)c1-c1ccc(Cl)cc1 0.708 µM [inhibitor, full curve, poor fit]
O=C(NNc1cc(Cl)ccc1Cl)c1cccs1 50.1 µM [inhibitor, partial curve, poor fit]
Cc1ccc([C@H]2C[C@H](n3cc(-c4ccc(F)cc4)nn3)[C@@H](O)CN2C(=O)c2cccs2)cc1 14.1 µM [inhibitor, partial curve]
Cc1cccc(CCNC(=O)c2ccc(CSCc3cccc(Cl)c3)o2)c1 0.794 µM [inhibitor, full curve, poor fit]
CCc1ccc(Nc2n[n+](-c3ccccc3)c(-c3ccc(N(CC)CC)cc3)s2)cc1 35.5 µM [inhibitor, partial curve, poor fit]
O=C(N/N=C/c1ccco1)c1cccc(N2Cc3ccccc3C2)c1 63.1 µM [inhibitor, partial curve, poor fit]
Cc1cccc(CSC2=NCCN2C(=O)c2ccc(Br)o2)c1 0.316 µM [inhibitor, full curve, poor fit]
O=C1NN(c2ccc(Cl)cc2)C(=O)/C1=C\c1ccc(-c2cccc(C(=O)O)c2)o1 39.8 µM [inhibitor, partial curve]
Cc1ccc(NC(=O)c2oc3ccc(S(=O)(=O)N4CCC5(CC4)OCCO5)cc3c2C)cc1C 0.447 µM [inhibitor, full curve, poor fit]
O=C(O)C1=C[C@H](C2CC2)C[C@H](OCCCCO)O1 44.7 µM [inhibitor, partial curve, poor fit]
Cc1ccc(C)c(N2CCN(C(=O)c3cc4ccccn4n3)CC2)c1 39.8 µM [inhibitor, partial curve, poor fit]
Cc1ccccc1-c1nc2scc(CCNS(=O)(=O)c3ccccc3)n2n1 39.8 µM [inhibitor, partial curve, poor fit]
Cc1ccc(CNC(=O)CCn2cc(-c3ccc(C)cc3)nc2CCN)cc1 100 µM [inhibitor, partial curve, poor fit]
Cc1cn2c(=O)cc(COC(=O)c3cccc(NC(=O)c4ccc(C(C)(C)C)cc4)c3)nc2s1 0.355 µM [inhibitor, full curve, poor fit]
O=C1NC(=S)NC(=O)C1=Cc1ccccc1C(=O)O 7.08 µM [inhibitor, full curve, poor fit]
Cc1cccc(C(=O)Nc2cc(-c3nc4cccnc4s3)ccc2C)c1 35.5 µM [inhibitor, single point]
CSc1ccc(-c2sc(Nc3cccc4ccccc34)n[n+]2-c2ccccc2)cc1 28.2 µM [inhibitor, partial curve, poor fit]
COc1cc2c(cc1OC)C(=O)Cc1ccc3c(c1CN(C)CC2)OCO3 141 µM [inhibitor, partial curve]
Cc1cc(C)c(S(=O)(=O)N2CCCC2=O)c(C)c1 11.2 µM [inhibitor, partial curve, poor fit]
O=C(NCc1ccccc1)C1CCCN(S(=O)(=O)c2cccc3nsnc23)C1 (configuration not stated) 3.55 µM [inhibitor, full curve, poor fit]
CC(C)(C)OC(=O)N1CCC(c2c(C(=O)Nc3ccc4c(c3)OCCO4)cnn2-c2ccc(Cl)cc2)CC1 20 µM [inhibitor, partial curve]
CCCCNC(=S)NNC(=O)c1csc(CC)c1 89.1 µM [inhibitor, partial curve, poor fit]
CCCCC[C@H]1CN(C2CCCCC2)C(=O)[C@@H]1CC(=O)NCc1ccccc1 50.1 µM [inhibitor, partial curve, poor fit]
COCCCNC(=O)c1cn(C)c(=O)c2cc(OC)c(OC)cc12 31.6 µM [inhibitor, single point]

3 records picked at random from the list so far, as already listed:
Potency, inconclusive:
CC1=C(C(=O)Nc2ccccc2)C(c2ccco2)C(C#N)=C(SCC(=O)Nc2cccc(C)c2C)N1 (configuration not stated) 0.251 µM [inhibitor, full curve, poor fit]
COc1cc2c(cc1OC)C(=O)Cc1ccc3c(c1CN(C)CC2)OCO3 141 µM [inhibitor, partial curve]
Cc1ccc(NC(=O)CC2Nc3cc(C)c(C)cc3NC2=O)c(C)c1 (configuration not stated) 0.398 µM [inhibitor, full curve, poor fit]

Next part.

Potency, inactive:
Cc1ccc2nc(N(CCCN(C)C)C(=O)CN3C(=O)c4ccccc4C3=O)sc2c1
COc1ccc(CCNC(=O)c2nc(SCc3ccccc3F)ncc2Cl)cc1OC
Cc1cccc(C)c1NC(=O)Cn1c(=O)n(CCCS(=O)(=O)C2CCCCC2)c(=O)c2ccccc21
CCCN(C(=O)Cn1ncc2c1-c1ccccc1OC2)c1cccc(C)c1
O=C1N(Cc2cccc(Cl)c2)C[C@@H]2C[C@@H](c3cccn3-c3cccnc3)N3CCC[C@@]123
COc1ccc(-c2cc(-c3c(O)c(OC)c4occc4c3OC)[nH]n2)cc1
CC(CNC(=O)C1CCN(C(=O)N2CCOc3ccc(Cl)cc32)CC1)c1ccccc1 (configuration not stated)
NC(=O)c1sc2nc3c(c(-c4ccco4)c2c1N)CCC3
O=C1CS/C(=N/N=C2CCCC2)N1
CNC(C)C#Cc1c(-c2cc(OC)c(OC)c(OC)c2)noc1C (configuration not stated)
O=[N+]([O-])c1ccc(-c2nc(Nc3cccc(O)c3)c3ccccc3n2)cc1
O=C(Nc1ccccc1)C1=C[C@@H](c2csc3ccccc23)C[C@@H](OCc2ccc(CO)cc2)O1
CCn1c2ccc(Cl)cc2c2nc3ccccc3nc21
C=CCC[C@@H](Cc1ccc(F)cc1)C(=O)OC[C@@H](Cc1c[nH]c2ccccc12)NC(=O)[C@H](CC=C)CC(=O)NCCO
CC(=O)OCC1=C(C(=O)O)N2C(=O)[C@@H](NC(=O)Cc3cccs3)[C@H]2SC1
COCCNC(=O)CN(Cc1ccccc1)S(=O)(=O)c1ccc2nc(C)sc2c1
Cc1cc(-c2ccccc2)nc(-c2ccccc2)c1C
Cc1nn(CC(O)COc2ccc3c(c2)CCC3)c(C)c1C (configuration not stated)
Cc1ccc(S(=O)(=O)ON=C2CCN(S(=O)(=O)c3ccccc3)CC2)cc1
Cc1cc(C)c(NC(=O)COC(=O)c2cccc3c2C(=O)c2ccccc2C3=O)c(C)c1
Cc1cc(C(=O)CSc2nnc(N)s2)c(C)n1Cc1cccs1
COC(=O)c1sccc1S(=O)(=O)N1CCN(c2cc(Cl)ccc2C)CC1
NC(=O)C1CCN(C(=O)C2CC(=O)N(c3ccc4c(c3)OCCO4)C2)CC1 (configuration not stated)
Cc1ccc(C(=O)c2coc3ccc(O)c(CN4CCN(C)CC4)c23)cc1
CCCCCOC(=O)c1[nH]c2c(c1C)C(=O)C(C(=O)OC)C(C)C2 (configuration not stated)
Cc1ccc(Cn2cc(CCC(=O)NC3CCC(C)CC3)c3ccccc32)cc1 (configuration not stated)
CC1CCCCN1CC(=O)Nc1ccc(Oc2ccccc2)cc1 (configuration not stated)

Activity change, negative = inhibition, inconclusive:
O=C(CCCCCn1c(=S)[nH]c2ccc(N3CCOCC3)cc2c1=O)NCc1ccccc1Cl -27.3% [inhibitor]
